Assay results: paper PMC8254492
No constants are given. Whether binding was seen depends on the method and setting. In cells and extracts the contact can be indirect. Some entries that bind do so weakly or less than the wild type.

Target: T1, BLUE LIGHT … 1 (BLUS1), full-length (Arabidopsis thaliana) (UniProt O23304)
T1 sequence: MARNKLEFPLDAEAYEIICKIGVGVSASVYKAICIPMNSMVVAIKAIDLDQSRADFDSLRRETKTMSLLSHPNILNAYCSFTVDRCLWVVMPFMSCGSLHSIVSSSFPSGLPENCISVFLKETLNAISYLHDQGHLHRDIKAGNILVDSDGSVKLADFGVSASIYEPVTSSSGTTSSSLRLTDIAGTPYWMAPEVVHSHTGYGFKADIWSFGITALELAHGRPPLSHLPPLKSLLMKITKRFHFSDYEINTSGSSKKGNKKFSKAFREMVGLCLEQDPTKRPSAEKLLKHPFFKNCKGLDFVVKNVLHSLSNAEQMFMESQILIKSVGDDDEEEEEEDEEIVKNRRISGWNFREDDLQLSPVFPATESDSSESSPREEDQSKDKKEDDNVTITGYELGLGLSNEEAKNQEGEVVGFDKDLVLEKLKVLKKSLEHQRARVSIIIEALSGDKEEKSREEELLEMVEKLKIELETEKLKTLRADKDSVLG
Assay: pull-down; in vitro pull-down of BHP with full-length and C-terminal truncated BLUS1; bait, buffer and conditions not shown (Supplemental Figure S7A)

binding: binds
B1: BLUE LIGHT-… H+-ATPASE PHOSPHORYLATION (BHP) (protein, UniProt Q93Z30 1-459)
chain: MEEDYQQPRFTIGRQSSMAPEKIPEPSVHSEEEVFEDGEEIDGGVRLMYLANEGDIEGIKELIDSGIDANYRDIDDRTALHVAACQGLKDVVELLLDRKAEVDPKDRWGSTPFADAIFYKNIDVIKILEIHGAKHPMAPMHVKTAREVPEYEINPSELDFTQSKEITKGTYCMAMWRGIQVAVKKLDDEVLSDDDQVRKFHDELALLQRLRHPNIVQFLGAVTQSNPMMIVTEYLPRGDLRELLKRKGQLKPATAVRYALDIARGMSYLHEIKGDPIIHRDLEPSNILRDDSGHLKVADFGVSKLVTVKEDKPFTCQDISCRYIAPEVFTSEEYDTKADVFSFALIVQEMIEGRMPFAEKEDSEASEAYAGKHRPLFKAPSKNYPHGLKTLIEECWHEKPAKRPTFREIIKRLESILHHMGHKRQWRMRPLTCFQNFEHKKKHNWDLSSHDGSSSGSHL
